Reference: the supplement of paper PMC10849652
The list shows a part of the results.

Chains of the proteins cited; added tags and fusions are not shown. Lines headed by an entry give the natural chain unless they say otherwise; changes in a name come on top.
UniProt Q9Y6Y0: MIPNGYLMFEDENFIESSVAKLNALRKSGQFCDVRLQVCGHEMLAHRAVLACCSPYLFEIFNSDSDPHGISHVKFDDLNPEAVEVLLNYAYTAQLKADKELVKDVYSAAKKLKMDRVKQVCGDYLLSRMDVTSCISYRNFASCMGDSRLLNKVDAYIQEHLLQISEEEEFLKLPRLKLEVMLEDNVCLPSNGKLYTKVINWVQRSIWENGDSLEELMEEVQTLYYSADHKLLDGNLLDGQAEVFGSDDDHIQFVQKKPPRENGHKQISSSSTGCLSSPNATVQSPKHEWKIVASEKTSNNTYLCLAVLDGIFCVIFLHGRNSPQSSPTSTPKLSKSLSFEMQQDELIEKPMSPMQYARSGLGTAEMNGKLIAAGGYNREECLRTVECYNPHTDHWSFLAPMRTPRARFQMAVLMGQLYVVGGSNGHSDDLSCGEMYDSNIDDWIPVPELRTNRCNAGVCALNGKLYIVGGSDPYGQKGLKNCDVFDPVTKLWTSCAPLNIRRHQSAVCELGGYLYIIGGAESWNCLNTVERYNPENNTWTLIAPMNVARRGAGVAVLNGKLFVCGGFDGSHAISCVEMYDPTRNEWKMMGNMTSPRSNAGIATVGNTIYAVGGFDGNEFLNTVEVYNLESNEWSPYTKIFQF
UniProt Q9BQ90: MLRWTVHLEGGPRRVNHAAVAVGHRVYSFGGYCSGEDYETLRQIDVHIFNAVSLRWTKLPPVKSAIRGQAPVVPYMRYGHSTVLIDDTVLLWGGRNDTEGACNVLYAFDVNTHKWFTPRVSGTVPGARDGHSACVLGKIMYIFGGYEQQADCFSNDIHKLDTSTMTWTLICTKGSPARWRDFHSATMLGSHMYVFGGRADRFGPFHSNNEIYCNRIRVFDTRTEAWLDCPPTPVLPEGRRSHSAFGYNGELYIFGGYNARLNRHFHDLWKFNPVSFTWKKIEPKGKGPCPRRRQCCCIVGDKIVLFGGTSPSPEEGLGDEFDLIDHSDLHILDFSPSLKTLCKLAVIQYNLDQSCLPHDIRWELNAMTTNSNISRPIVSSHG
UniProt P17535: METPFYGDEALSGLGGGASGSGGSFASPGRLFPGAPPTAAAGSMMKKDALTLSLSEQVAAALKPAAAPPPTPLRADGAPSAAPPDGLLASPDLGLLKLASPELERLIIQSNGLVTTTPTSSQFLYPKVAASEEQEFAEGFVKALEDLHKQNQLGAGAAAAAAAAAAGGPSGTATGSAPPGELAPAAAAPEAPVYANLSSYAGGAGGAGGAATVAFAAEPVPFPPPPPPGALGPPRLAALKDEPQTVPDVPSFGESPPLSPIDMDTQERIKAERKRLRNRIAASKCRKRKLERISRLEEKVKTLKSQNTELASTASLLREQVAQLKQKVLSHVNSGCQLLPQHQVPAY
UniProt Q9NVX7: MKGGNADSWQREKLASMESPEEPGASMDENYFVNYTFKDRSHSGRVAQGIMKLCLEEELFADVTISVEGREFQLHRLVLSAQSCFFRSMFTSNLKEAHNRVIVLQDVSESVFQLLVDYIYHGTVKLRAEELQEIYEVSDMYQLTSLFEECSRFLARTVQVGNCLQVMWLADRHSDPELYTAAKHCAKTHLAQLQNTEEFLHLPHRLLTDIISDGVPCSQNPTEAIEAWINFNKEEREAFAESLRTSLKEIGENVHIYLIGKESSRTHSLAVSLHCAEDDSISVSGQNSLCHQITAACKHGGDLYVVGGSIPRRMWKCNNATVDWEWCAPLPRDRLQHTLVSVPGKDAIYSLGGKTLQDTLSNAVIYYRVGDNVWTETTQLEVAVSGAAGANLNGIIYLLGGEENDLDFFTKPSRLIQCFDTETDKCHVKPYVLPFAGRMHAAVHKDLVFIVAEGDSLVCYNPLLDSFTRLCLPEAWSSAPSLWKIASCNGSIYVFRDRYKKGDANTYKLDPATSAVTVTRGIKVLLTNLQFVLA
UniProt P01042: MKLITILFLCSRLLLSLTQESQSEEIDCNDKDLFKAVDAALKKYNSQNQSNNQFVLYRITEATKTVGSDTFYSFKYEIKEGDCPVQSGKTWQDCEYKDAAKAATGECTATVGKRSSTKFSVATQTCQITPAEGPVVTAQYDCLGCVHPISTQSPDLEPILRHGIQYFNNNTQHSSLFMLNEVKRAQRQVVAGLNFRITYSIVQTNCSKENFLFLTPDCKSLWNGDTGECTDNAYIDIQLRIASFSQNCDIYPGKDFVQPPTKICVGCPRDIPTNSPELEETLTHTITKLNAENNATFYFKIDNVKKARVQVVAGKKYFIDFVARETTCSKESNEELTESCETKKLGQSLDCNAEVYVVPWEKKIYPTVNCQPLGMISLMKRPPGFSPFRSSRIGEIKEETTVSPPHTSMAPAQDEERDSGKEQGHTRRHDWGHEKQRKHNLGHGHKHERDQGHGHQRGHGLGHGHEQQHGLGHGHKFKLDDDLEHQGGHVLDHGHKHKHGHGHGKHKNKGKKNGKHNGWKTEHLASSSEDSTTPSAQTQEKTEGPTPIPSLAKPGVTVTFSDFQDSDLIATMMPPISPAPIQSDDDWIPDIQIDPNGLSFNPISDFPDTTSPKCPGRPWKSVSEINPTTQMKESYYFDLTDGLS
UniProt O60268: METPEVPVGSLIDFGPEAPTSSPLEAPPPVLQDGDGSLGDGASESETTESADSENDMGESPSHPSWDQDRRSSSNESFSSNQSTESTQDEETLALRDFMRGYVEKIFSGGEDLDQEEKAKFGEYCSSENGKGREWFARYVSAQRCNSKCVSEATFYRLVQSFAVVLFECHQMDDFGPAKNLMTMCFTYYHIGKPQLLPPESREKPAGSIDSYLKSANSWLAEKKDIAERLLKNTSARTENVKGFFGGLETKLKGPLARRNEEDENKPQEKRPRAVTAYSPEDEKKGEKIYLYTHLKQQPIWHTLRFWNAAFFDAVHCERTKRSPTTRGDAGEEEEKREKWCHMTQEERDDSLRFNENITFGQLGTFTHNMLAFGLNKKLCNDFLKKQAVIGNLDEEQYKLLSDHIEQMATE
UniProt Q96A73: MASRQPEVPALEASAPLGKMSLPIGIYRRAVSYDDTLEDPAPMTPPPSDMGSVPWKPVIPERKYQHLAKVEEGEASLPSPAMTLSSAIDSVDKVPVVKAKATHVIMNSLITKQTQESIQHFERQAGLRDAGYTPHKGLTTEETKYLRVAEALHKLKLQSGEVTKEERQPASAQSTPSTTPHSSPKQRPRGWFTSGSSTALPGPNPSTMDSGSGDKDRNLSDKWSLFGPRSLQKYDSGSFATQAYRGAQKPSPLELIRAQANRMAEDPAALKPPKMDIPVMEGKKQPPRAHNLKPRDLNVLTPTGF
UniProt Q02241: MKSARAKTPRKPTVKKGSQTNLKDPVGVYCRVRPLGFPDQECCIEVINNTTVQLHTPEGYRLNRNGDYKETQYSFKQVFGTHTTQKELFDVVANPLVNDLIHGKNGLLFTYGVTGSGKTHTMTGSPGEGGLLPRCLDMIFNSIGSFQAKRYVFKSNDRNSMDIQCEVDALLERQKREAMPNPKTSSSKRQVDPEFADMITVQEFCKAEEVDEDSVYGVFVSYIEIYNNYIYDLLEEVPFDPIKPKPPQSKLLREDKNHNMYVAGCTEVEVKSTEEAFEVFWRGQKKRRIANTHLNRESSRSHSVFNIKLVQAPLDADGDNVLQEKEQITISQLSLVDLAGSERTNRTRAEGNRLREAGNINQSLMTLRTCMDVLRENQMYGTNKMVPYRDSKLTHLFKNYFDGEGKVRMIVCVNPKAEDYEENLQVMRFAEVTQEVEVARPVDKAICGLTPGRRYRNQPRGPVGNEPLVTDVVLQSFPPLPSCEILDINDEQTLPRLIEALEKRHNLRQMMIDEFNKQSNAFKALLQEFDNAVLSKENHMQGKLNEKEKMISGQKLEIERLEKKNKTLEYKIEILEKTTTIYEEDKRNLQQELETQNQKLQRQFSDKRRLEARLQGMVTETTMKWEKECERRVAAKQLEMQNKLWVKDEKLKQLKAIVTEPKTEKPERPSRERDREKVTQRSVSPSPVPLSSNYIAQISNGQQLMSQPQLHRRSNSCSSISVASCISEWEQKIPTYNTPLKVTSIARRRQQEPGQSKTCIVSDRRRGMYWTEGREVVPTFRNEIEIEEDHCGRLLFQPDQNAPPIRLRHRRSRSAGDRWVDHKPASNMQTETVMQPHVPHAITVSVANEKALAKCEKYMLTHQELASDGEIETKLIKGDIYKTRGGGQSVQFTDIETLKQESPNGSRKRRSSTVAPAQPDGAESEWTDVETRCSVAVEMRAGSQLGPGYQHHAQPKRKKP
UniProt Q06136: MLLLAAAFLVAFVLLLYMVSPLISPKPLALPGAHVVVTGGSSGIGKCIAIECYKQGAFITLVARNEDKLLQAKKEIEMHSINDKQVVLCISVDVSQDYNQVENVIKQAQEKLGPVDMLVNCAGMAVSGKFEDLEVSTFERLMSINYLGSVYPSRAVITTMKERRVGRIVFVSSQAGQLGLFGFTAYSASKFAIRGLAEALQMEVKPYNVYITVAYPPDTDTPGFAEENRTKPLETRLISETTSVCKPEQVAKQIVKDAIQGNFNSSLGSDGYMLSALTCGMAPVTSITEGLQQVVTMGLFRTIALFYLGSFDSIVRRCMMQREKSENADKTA
UniProt O76095: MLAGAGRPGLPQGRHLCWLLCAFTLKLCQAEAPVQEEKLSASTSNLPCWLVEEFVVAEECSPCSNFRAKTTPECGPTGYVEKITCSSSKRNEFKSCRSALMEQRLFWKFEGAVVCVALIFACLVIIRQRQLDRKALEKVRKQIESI
UniProt Q9Y219: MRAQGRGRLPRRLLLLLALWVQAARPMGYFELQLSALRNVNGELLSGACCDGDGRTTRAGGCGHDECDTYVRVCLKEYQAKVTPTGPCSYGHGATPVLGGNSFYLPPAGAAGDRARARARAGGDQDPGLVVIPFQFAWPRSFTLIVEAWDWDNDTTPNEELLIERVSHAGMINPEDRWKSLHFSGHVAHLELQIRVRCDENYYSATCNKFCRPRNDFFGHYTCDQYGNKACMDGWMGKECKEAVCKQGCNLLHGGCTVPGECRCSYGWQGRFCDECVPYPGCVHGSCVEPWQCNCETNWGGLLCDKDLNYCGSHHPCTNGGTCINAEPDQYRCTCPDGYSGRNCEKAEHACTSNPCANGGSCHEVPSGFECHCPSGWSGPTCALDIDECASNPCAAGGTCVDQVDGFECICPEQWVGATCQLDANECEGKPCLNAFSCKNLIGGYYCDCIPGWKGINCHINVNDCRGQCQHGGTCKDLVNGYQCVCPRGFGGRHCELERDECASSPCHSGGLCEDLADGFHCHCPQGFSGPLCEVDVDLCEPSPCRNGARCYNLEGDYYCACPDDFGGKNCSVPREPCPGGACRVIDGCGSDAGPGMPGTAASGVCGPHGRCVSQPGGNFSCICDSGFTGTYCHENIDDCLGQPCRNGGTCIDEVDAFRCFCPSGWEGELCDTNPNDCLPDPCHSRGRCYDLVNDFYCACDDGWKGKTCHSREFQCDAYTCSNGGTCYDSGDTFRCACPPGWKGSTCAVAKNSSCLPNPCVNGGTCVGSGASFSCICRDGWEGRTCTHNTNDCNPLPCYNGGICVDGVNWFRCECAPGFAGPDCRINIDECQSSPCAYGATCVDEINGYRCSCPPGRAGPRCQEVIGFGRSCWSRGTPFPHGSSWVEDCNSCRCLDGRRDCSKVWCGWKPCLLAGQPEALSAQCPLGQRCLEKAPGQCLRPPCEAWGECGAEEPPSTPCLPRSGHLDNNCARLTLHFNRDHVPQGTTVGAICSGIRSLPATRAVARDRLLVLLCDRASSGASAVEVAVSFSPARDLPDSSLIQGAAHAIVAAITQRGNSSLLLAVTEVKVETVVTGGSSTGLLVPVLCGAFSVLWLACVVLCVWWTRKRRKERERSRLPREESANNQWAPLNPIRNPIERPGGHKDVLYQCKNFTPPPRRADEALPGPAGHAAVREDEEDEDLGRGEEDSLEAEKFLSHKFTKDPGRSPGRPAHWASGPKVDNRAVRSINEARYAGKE
UniProt Q8NFY9: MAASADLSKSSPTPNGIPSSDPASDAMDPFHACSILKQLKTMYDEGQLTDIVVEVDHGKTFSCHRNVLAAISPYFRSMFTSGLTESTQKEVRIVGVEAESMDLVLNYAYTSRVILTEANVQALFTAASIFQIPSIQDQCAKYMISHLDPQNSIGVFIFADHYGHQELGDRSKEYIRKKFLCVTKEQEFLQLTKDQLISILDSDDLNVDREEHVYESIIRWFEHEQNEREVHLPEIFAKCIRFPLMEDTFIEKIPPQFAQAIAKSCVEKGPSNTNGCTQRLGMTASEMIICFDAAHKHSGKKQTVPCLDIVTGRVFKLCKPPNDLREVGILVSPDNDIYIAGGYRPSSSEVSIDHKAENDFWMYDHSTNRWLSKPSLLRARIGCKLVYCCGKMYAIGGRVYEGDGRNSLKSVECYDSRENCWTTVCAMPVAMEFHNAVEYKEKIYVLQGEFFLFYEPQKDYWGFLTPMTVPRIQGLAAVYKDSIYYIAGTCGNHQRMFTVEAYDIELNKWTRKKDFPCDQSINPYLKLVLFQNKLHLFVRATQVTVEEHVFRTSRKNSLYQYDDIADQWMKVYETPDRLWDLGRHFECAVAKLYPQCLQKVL

Tests used:
Test in all cases: log2 fold change, soluble protein after heating vs DMSO (PISA); higher = thermal stabilisation; K562 cells, 10 uM, 30 min; active = over 0.2 and 3.5 SD of the protein, either way, in both replicates (recomputed)
[1] = compound: NC(=O)Nc1cc(-c2cccc(F)c2)sc1C(=O)N[C@H]1CCCNC1
Procedure, shortened: (§1)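 K562 cells at 2×10^6 cells/mL were given 10 μM compound for 30 min. Aliquots then went through 3 min of heating across 48°C-58°C, were pooled, and were extracted in PBS with 0.5% NP-40 at 4°C, and the supernatant after 21,000xg for 90 min was quantified by TMTpro 16plex LC-MS/MS with channel sums equalised. Thermal stability relative to control samples, from duplicates, is given as log2 fold change.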

[2] = compound: NC(=O)c1cnc(N[C@@H]2CCCC[C@@H]2N)nc1Nc1cccc(-n2nccn2)c1
Procedure, shortened: as §1

[3] = compound: NC1(c2ccc(-c3nc4ccn5c(=O)[nH]nc5c4cc3-c3ccccc3)cc2)CCC1
Procedure, shortened: as §1

[4] = compound: NCC(=O)Nc1ccc(-n2nc(C(F)(F)F)cc2-c2ccc3c(ccc4ccccc43)c2)cc1
Procedure, shortened: as §1

entinostat = compound: Nc1ccccc1NC(=O)c1ccc(CNC(=O)OCc2cccnc2)cc1 [entinostat]
Procedure, shortened: as §1

vorinostat = compound: O=C(CCCCCCC(=O)Nc1ccccc1)NO [vorinostat]
Procedure, shortened: as §1

citarinostat = compound: O=C(CCCCCCNC(=O)c1cnc(N(c2ccccc2)c2ccccc2Cl)nc1)NO [citarinostat]
Procedure, shortened: as §1

silmitasertib = compound: O=C(O)c1ccc2c(c1)nc(Nc1cccc(Cl)c1)c1ccncc12 [silmitasertib]
Procedure, shortened: as §1

[5] = compound: O=C1NC(=O)C(c2cnc3ccccn23)=C1c1cn2c3c(cc(F)cc13)CN(C(=O)N1CCCCC1)CC2
Procedure, shortened: as §1

[6] = compound: c1cc(OCCN2CCCCC2)cc(-c2n[nH]c3ccc(-c4nnc[nH]4)cc23)c1
Procedure, shortened: as §1

entospletinib = compound: c1cn2cc(-c3ccc4cn[nH]c4c3)nc(Nc3ccc(N4CCOCC4)cc3)c2n1 [entospletinib]
Procedure, shortened: as §1

Measured: log2 fold change

KIAA0319L (UniProt Q8IZA0)
inactive: [1] -0.025 | [2] 0.011 | [3] -0.1 | [4] 0.067 | entinostat -0.017 | vorinostat -0.036 | citarinostat 0.011 | silmitasertib 0.007 | [5] -0.018 | [6] -0.037 | entospletinib -0.001

IVNS1ABP (UniProt Q9Y6Y0)
inactive: [1] -0.098 | [2] 0.019 | [3] -0.031 | [4] -0.01 | entinostat -0.058 | vorinostat 0.136 | citarinostat 0.01 | silmitasertib 0.043 | [5] 0.037 | [6] 0.032 | entospletinib 0.108

KCTD3 (UniProt Q9Y597)
inactive: [1] -0.064 | [2] -0.027 | [3] 0.003 | [4] -0.037 | entinostat -0.117 | vorinostat 0 | citarinostat -0.06 | silmitasertib 0.001 | [5] 0.007 | [6] -0.052 | entospletinib 0.03

KHK isoform 2 (UniProt P50053)
inactive: [1] -0.012 | [2] 0.058 | [3] -0.081 | [4] -0.004 | entinostat -0.06 | vorinostat -0.017 | citarinostat 0.045 | silmitasertib 0.01 | [5] -0.087 | [6] 0.004 | entospletinib -0.039

KAZN isoform 3 (UniProt Q674X7)
inactive: [1] 0.017 | [2] 0.04 | [3] -0.017 | [4] -0.015 | entinostat 0.024 | vorinostat -0.069 | citarinostat 0.015 | silmitasertib -0.003 | [5] -0.075 | [6] 0.016 | entospletinib -0.133

KNSTRN (UniProt Q9Y448)
inactive: [1] -0.005 | [2] -0.078 | [3] 0.057 | [4] 0.008 | entinostat 0.084 | vorinostat 0.015 | citarinostat 0.022 | silmitasertib 0.112 | [5] 0.164 | [6] -0.102 | entospletinib 0.073

ITSN1 (UniProt Q15811)
inactive: [1] 0.023 | [2] -0.024 | [3] 0.23 | entinostat 0.271 | vorinostat 0.224 | silmitasertib 0.158 | [5] 0.097

KLHL7 isoform 3 (UniProt Q8IXQ5)
inactive: [1] 0.125 | [2] 0.157 | [3] -0.04 | entinostat 0.005 | silmitasertib -0.287 | [5] -0.123

JMJD8 (UniProt Q96S16)
inactive: [1] 0.134 | [2] 0.074 | [3] -0.022 | [4] -0.105 | entinostat 0.049 | silmitasertib 0.073

KIF2A isoform 4 (UniProt O00139)
inactive: [1] 0.031 | [2] 0.003 | [3] 0.092 | [4] 0.018 | entinostat 0 | vorinostat -0.043 | citarinostat -0.036 | silmitasertib 0.11 | [5] 0.159 | [6] -0.149 | entospletinib 0.034

KLHDC3 (UniProt Q9BQ90)
inactive: [1] -0.026 | [2] 0.055 | [4] 0.067 | entinostat 0.003 | vorinostat 0.1 | citarinostat -0.08 | [5] 0.042 | [6] -0.134 | entospletinib -0.063

JUND (UniProt P17535)
inactive: [1] -0.067 | [2] -0.109 | [3] 0.056 | [4] 0.09 | entinostat -0.022 | vorinostat -0.078 | citarinostat -0.065 | silmitasertib 0.024 | [5] -0.038 | [6] -0.04 | entospletinib -0.016

KBTBD4 isoform 2 (UniProt Q9NVX7)
inactive: [1] 0.03 | [2] -0.027 | [3] -0.056 | [4] -0.01 | entinostat -0.045 | citarinostat 0.018 | silmitasertib -0.037 | [5] -0.112 | [6] 0.068 | entospletinib -0.08

KAT7 (UniProt O95251)
inactive: [1] -0.066 | [2] 0.037 | [3] -0.001 | [4] 0.008 | entinostat -0.067 | citarinostat -0.004 | silmitasertib -0.151 | [6] 0.024 | entospletinib -0.013

KLF3 (UniProt P57682)
inactive: [1] 0.073 | [2] 0.029 | [3] 0.044 | [4] 0.018 | entinostat -0.08 | vorinostat 0.192 | silmitasertib 0.101 | [5] -0.011

KNG1 (UniProt P01042)
inactive: [1] -0.055 | [2] -0.048 | [3] 0.312 | [4] -0.054 | entinostat -0.127 | vorinostat 0.078 | citarinostat -0.119 | silmitasertib 0.254 | [6] 0.374 | entospletinib 0.19

KLHL7 (UniProt Q8IXQ5)
inactive: [1] -0.027 | [2] 0.16 | [4] 0.249 | entinostat 0.034 | [5] -0.02

JMJD1C (UniProt Q15652)
inactive: [1] -0.044 | [2] -0.041 | [3] -0.006 | [4] -0.064 | entinostat 0.036 | vorinostat 0.088 | citarinostat 0.104 | silmitasertib 0.134 | [5] -0.025 | [6] -0.018 | entospletinib -0.05

KATNAL1 (UniProt Q9BW62)
inactive: [1] -0.166 | [2] -0.22 | [4] 0.012 | entinostat 0.138 | [5] -0.324

KCMF1 (UniProt Q9P0J7)
inactive: [1] 0.093 | [2] 0.06 | [3] -0.077 | [4] 0.07 | entinostat 0.121 | vorinostat 0.122 | citarinostat 0.034 | silmitasertib 0.047 | [5] 0.002 | [6] -0.049 | entospletinib 0.057

KIF13B (UniProt Q9NQT8)
inactive: [1] -0.131 | [2] 0.021 | [3] 0.242 | entinostat -0.029 | vorinostat -0.107 | citarinostat -0.127 | silmitasertib 0.166 | [5] 0.009 | [6] -0.066 | entospletinib 0.034

KIAA0513 (UniProt O60268)
inactive: [1] -0.087 | [2] -0.027 | [3] -0.135 | [4] 0 | entinostat -0.032 | vorinostat 0.048 | silmitasertib 0.005

KIAA1191 (UniProt Q96A73)
inactive: [1] -0.026 | [2] -0.023 | [3] 0.035 | [4] 0.029 | entinostat 0.037 | vorinostat 0.037 | citarinostat 0.098 | silmitasertib 0.063 | [5] -0.118 | [6] 0.024 | entospletinib 0.025

KIF15 (UniProt Q9NS87)
inactive: [1] 0.046 | [2] -0.083 | [3] 0.049 | [4] -0.067 | entinostat -0.057 | vorinostat 0.128 | citarinostat 0.041 | silmitasertib 0.082 | [5] 0.282 | [6] -0.107 | entospletinib 0.262

KLF16 (UniProt Q9BXK1)
inactive: [1] 0.051 | [2] -0.054 | [3] 0.026 | [4] 0.193 | entinostat -0.047 | vorinostat -0.077 | citarinostat -0.015 | silmitasertib 0.008 | [6] -0.038 | entospletinib 0.001

KIF23 (UniProt Q02241)
inactive: [1] -0.022 | [2] -0.048 | [3] 0.007 | [4] -0.082 | entinostat -0.062 | vorinostat 0.199 | citarinostat 0.047 | silmitasertib -0.034 | [5] 0.078 | [6] -0.075 | entospletinib -0.041

KDSR (UniProt Q06136)
inactive: [1] 0.022 | [2] -0.007 | [3] -0.031 | [4] 0.012 | entinostat -0.034 | vorinostat -0.027 | citarinostat 0.03 | silmitasertib -0.003 | [5] 0.018 | [6] 0.035 | entospletinib -0.006

JTB (UniProt O76095)
inactive: [1] -0.06 | [2] 0.105 | [3] -0.122 | [4] -0.028 | entinostat 0.032 | citarinostat -0.1 | silmitasertib 0.098 | [5] -0.014 | [6] 0.077 | entospletinib -0.037

KAT8 isoform 2 (UniProt Q9H7Z6)
inactive: [1] 0.021 | [2] -0.179 | [3] -0.136 | [4] 0.049 | entinostat 0.014 | vorinostat 0.013 | silmitasertib 0.017

JAG2 (UniProt Q9Y219)
inactive: [1] 0.006 | [2] 0.125 | [4] -0.033 | entinostat -0.01 | [5] 0.051

KIF14 (UniProt Q15058)
inactive: [1] -0.077 | [2] 0.003 | [3] -0.158 | [4] 0.001 | entinostat -0.061 | citarinostat 0.074 | silmitasertib 0.158 | [5] 0.081 | [6] -0.135 | entospletinib 0.294

Reprinted at random: two records from the list
KDSR (UniProt Q06136)
inactive: [1] 0.022 | [2] -0.007 | [3] -0.031 | [4] 0.012 | entinostat -0.034 | vorinostat -0.027 | citarinostat 0.03 | silmitasertib -0.003 | [5] 0.018 | [6] 0.035 | entospletinib -0.006

JTB (UniProt O76095)
inactive: [1] -0.06 | [2] 0.105 | [3] -0.122 | [4] -0.028 | entinostat 0.032 | citarinostat -0.1 | silmitasertib 0.098 | [5] -0.014 | [6] 0.077 | entospletinib -0.037

(next part)

KBTBD8 (UniProt Q8NFY9)
inactive: [1] 0.022 | [2] 0.075 | [3] -0.116 | [4] -0.016 | entinostat 0.108 | vorinostat 0.17 | citarinostat 0.05 | silmitasertib 0.187 | [5] 0.153 | [6] 0.007 | entospletinib 0.013
